{
  "source": "PubChem BioAssay AID504444",
  "about": "(National Center for Advancing Translational Sciences (NCATS), 2011)",
  "note": "The whole screen tested about 360,000 compounds, of which about 7,500 (2.1%) were called active. This list was built around the results that the source calls inconclusive (neither active nor inactive); the mix of calls is not that of the screen. Calls follow the shape of the dose curve; as a rule, active = well fitted inhibition curve with a large enough effect; inconclusive = small, poorly fitted or top-dose-only effect, or effect the other way; inactive = flat fitted curve, though single readings scatter. Where the call is inconclusive, the potency comes from a doubtful curve fit. Potency is read from the fitted curve at half-maximal effect.",
  "data": [
    {"assay": "Nrf2 qHTS screen for inhibitors; also: nearly all actives have a fitted effect of over 60% in size", "settings": "A549 ARE-Fluc reporter, luciferase luminescence, 18-24 h; series mostly up to 46 µM", "in_short": "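A549 ARE_Fluc cells, 5000/well, 5% FBS OPTI-MEM; compounds in dose-response, 18-24 h at 37 °C/5% CO2; CellTiter-Fluor viability read (Ex 405/Em 525), then BugLite luciferase luminescence = Nrf2 activity.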", "values": [
      {"smiles": "CCOC(=O)C1CCN(C(=O)CCS(=O)(=O)c2ccc3c(c2)CCN3C(=O)CC)CC1", "Potency": "inactive"},
      {"smiles": "O=C1CS/C(=N/N=C/c2cccs2)N1Cc1ccc(F)cc1", "Potency": "inconclusive: 18.4 µM [falling, single point]"},
      {"smiles": "CC(=O)c1sc(NC(=O)C2CCN(C(=O)c3ccccc3C)CC2)nc1-c1ccccc1", "Potency": "inconclusive: 16.4 µM [falling, single point]"},
      {"smiles": "O=C(/C=C/c1c(F)cccc1Cl)N1CCOCC1", "Potency": "inconclusive: 4.11 µM [activator, full curve, poor fit]"},
      {"smiles": "N#Cc1ccccc1OCC(=O)OCC(=O)c1c[nH]c2ccccc12", "Potency": "inactive"},
      {"smiles": "COc1ccccc1C(=O)Nc1nnc(SCC(=O)NCC2CCCO2)s1", "note": "(stereo not drawn)", "Potency": "inconclusive: 1.84 µM [activator, full curve]"},
      {"smiles": "CN(CC(=O)Nc1c(Cl)cccc1Cl)C(=O)CNC(=O)c1ccc2ccccc2c1", "Potency": "inconclusive: 20.6 µM [falling, partial curve, poor fit]"},
      {"smiles": "COc1ccc(-c2cc(C(=O)NCc3cccs3)no2)cc1", "Potency": "inconclusive: 2.31 µM [activator, full curve]"},
      {"smiles": "CCN(CC)S(=O)(=O)c1ccc(C(=O)NCCSc2c(-c3ccc(F)cc3)[nH]c3ccccc23)cc1", "Potency": "inconclusive: 3.66 µM [falling, partial curve]"},
      {"smiles": "COc1cc(C(=O)N2CCN(c3ccc(C)cc3C)CC2)cc(OC)c1OC", "Potency": "inconclusive: 0.0065 µM [falling, full curve, poor fit]"},
      {"smiles": "COCCNC(=O)c1c[nH]c2ccc(S(=O)(=O)N(C)c3ccc(C)c(C)c3)cc2c1=O", "Potency": "inconclusive: 16.4 µM [falling, partial curve, poor fit]"},
      {"smiles": "CC1CCN(C(=O)CSc2nc3ccccc3[nH]2)CC1", "Potency": "inconclusive: 3.66 µM [activator, single point]"},
      {"smiles": "O=C(c1cc(C2CC2)nn1-c1ccccc1)N1CCN(c2ncc(C(F)(F)F)cc2Cl)CC1", "Potency": "inactive"},
      {"smiles": "O=[N+]([O-])c1ccccc1OCc1nc(-c2cccs2)no1", "Potency": "inconclusive: 7.31 µM [activator, partial curve]"},
      {"smiles": "COCCN1CCN(C(=O)c2cc(COc3cncc(Cl)c3)on2)CC1", "Potency": "inconclusive: 23.1 µM [falling, partial curve, poor fit]"},
      {"smiles": "CN1CCN(C(=O)c2ccc(-c3cccs3)s2)CC1", "Potency": "inconclusive: 0.0651 µM [activator, full curve, poor fit]"},
      {"smiles": "CCCC(=O)Nc1ccc2oc(-c3ccc(OC)c(Br)c3)nc2c1", "Potency": "inconclusive: 23.1 µM [falling, single point]"},
      {"smiles": "CCc1cccc(C)c1NC(=O)CSc1nc(C)c(C)o1", "Potency": "inactive"}
    ]}
  ]
}
